Experimental data taken from publication doi:10.1101/2022.03.09.483624.
Results are given in words; binding and its absence hold for the method and conditions named. Binding seen in cells or lysates may run through a third protein. Some entries that bind do so weakly or less than the wild type. Tags and fused reporters may be left off the sequences shown.

Protein sequences, listed by entry. Tags and fused reporters are not part of them.
UniProt Q14676, whole entry: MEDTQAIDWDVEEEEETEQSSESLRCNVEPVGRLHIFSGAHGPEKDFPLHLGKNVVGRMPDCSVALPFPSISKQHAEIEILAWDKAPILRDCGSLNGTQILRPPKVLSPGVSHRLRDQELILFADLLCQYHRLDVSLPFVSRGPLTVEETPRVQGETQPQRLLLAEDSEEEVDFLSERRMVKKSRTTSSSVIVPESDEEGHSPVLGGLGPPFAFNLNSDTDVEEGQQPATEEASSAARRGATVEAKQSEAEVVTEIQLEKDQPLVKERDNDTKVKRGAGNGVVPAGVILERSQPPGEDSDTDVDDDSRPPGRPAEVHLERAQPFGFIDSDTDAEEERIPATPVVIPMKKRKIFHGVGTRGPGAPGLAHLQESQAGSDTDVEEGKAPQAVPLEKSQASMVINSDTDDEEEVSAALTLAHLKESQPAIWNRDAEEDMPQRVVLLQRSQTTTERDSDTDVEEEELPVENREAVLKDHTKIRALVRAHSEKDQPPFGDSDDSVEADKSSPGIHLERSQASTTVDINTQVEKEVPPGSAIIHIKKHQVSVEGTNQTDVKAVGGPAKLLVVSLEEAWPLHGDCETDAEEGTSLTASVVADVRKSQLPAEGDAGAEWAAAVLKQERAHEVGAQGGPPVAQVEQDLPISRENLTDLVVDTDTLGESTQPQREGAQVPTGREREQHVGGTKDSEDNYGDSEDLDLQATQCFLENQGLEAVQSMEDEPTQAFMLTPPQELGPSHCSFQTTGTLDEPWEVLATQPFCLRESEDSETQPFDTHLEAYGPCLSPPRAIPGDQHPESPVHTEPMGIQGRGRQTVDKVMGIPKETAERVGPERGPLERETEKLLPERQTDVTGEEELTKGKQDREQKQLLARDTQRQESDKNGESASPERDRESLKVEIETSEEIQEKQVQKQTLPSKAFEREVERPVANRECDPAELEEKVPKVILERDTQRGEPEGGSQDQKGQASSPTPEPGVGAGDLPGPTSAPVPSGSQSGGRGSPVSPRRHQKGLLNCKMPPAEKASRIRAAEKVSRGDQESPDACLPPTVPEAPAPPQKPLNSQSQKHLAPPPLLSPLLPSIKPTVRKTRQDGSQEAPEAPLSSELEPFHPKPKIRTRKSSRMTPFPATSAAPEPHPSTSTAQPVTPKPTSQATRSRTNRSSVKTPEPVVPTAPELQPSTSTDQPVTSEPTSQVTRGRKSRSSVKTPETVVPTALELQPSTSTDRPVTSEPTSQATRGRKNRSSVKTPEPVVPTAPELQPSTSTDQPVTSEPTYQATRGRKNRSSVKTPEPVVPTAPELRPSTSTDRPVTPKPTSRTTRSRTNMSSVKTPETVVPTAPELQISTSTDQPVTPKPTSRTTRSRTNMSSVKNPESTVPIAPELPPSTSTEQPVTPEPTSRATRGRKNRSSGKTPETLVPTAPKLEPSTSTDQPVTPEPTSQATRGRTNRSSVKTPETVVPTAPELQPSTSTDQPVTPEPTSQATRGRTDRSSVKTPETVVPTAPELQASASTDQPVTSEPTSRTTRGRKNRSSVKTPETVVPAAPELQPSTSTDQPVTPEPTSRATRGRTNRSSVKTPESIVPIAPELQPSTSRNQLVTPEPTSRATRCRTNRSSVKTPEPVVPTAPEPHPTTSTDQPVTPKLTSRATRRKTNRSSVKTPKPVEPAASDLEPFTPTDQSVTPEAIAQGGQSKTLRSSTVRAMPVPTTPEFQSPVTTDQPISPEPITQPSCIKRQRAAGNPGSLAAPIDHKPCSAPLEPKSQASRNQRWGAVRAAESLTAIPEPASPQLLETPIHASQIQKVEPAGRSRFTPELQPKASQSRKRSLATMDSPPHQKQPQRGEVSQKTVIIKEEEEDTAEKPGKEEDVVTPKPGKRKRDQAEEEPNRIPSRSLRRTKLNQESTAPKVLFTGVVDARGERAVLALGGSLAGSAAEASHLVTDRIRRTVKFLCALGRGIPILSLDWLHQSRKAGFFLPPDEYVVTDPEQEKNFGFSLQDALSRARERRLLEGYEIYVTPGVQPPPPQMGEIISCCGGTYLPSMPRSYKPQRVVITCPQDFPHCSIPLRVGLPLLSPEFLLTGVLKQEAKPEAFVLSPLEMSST

Molecular target: T1, Sin3B-FLAG (UniProt O75182)
T1 sequence: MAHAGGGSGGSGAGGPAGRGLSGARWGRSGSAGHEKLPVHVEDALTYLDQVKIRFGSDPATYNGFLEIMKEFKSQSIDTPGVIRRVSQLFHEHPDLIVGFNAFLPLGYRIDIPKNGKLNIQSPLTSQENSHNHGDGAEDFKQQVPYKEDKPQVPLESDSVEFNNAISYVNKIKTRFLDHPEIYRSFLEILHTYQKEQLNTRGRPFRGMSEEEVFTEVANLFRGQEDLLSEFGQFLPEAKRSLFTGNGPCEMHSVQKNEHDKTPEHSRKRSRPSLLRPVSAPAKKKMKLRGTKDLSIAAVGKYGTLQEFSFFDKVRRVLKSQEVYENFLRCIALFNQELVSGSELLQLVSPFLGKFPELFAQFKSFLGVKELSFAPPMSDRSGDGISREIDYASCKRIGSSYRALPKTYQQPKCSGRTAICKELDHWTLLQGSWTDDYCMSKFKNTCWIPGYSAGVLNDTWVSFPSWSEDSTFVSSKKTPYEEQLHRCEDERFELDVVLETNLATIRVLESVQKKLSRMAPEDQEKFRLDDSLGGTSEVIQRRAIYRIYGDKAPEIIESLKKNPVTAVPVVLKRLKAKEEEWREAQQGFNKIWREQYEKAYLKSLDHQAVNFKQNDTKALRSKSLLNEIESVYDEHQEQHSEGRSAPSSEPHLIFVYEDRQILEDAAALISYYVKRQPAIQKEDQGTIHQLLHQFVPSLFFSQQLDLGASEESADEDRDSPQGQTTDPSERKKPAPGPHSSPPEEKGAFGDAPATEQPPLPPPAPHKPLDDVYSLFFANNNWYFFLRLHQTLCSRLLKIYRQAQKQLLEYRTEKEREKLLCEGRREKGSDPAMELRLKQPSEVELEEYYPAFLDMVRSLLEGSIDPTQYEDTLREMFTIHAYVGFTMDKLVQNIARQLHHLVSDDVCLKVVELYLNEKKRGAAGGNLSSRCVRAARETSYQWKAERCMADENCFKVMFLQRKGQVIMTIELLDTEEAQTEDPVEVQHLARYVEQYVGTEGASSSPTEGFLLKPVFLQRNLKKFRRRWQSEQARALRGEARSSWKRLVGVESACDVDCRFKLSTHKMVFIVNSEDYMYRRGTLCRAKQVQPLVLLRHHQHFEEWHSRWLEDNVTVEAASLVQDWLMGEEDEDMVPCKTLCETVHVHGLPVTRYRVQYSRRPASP
Assay: co-IP

Substance | binding
MDC1-GFP (from UniProt Q14676 1-2089) | binds
Mediator of DNA Damage Checkpoint 1 (MDC1), endogenous (from UniProt Q14676 1-2089) | binds
